Our source for the binding values is publication PMC3879332.

These are yes or no findings as the source states them, for the method shown.

Assay [1] has as its target hTyrCtr R422Q, temperature-sensitive OCA1B mutant of the human tyrosinase intra-melanosomal domain (human) (UniProt P14679). The assay can be described thus: SEC; gel filtration on a calibrated Superdex 75 10/30 HR column; Buffer B: 50 mM Tris-HCl, pH 7.2, 1 mM EDTA, 150 mM NaCl; room temperature; 0.5 ml/min; both purified. For orientation: In gel filtration, larger molecules generally elute earlier.

Assay [2] concerns the target hTyrCtr R422W, temperature-sensitive OCA1B mutant of the human tyrosinase intra-melanosomal domain (human) (UniProt P14679). The assay is described as above.

B1: hTyrCtr R422Q, temperature-sensitive OCA1B mutant of the human tyrosinase intra-melanosomal domain (domain or fragment, UniProt P14679 19-469)
chain: HFPRACVSSKNLMEKECCPPWSGDRSPCGQLSGRGSCQNILLSNAPLGPQFPFTGVDDRESWPSVFYNRTCQCSGNFMGFNCGNCKFGFWGPNCTERRLLVRRNIFDLSAPEKDKFFAYLTLAKHTISSDYVIPIGTYGQMKNGSTPMFNDINIYDLFVWMHYYVSMDALLGGSEIWRDIDFAHEAPAFLPWHRLFLLRWEQEIQKLTGDENFTIPYWDWRDAEKCDICTDEYMGGQHPTNPNLLSPASFFSSWQIVCSRLEEYNSHQSLCNGTPEGPLRRNPGNHDKSRTPRLPSSADVEFCLSLTQYESGSMDKAANFSFRNTLEGFASPLTGIADASQSSMHNALHIYMNGTMSQVQGSANDPIFLLHHAFVDSIFEQWLRRHRPLQEVYPEANAPIGHNQESYMVPFIPLYRNGDFFISSKDLGYDYSYLQDSDPDSFQDYIKSYLE
modifications: glycoprotein (sites not stated for this variant)
As for B1, the binding entry in assay [1] was “no binding”.

B2: hTyrCtr R422W, temperature-sensitive OCA1B mutant of the human tyrosinase intra-melanosomal domain (domain or fragment, UniProt P14679 19-469)
chain: HFPRACVSSKNLMEKECCPPWSGDRSPCGQLSGRGSCQNILLSNAPLGPQFPFTGVDDRESWPSVFYNRTCQCSGNFMGFNCGNCKFGFWGPNCTERRLLVRRNIFDLSAPEKDKFFAYLTLAKHTISSDYVIPIGTYGQMKNGSTPMFNDINIYDLFVWMHYYVSMDALLGGSEIWRDIDFAHEAPAFLPWHRLFLLRWEQEIQKLTGDENFTIPYWDWRDAEKCDICTDEYMGGQHPTNPNLLSPASFFSSWQIVCSRLEEYNSHQSLCNGTPEGPLRRNPGNHDKSRTPRLPSSADVEFCLSLTQYESGSMDKAANFSFRNTLEGFASPLTGIADASQSSMHNALHIYMNGTMSQVQGSANDPIFLLHHAFVDSIFEQWLRRHRPLQEVYPEANAPIGHNWESYMVPFIPLYRNGDFFISSKDLGYDYSYLQDSDPDSFQDYIKSYLE
modifications: glycoprotein (sites not stated for this variant)
For B2, the binding result in assay [2] is “no binding”.
